Assay results published in the supplement of paper PMC7661543.
± gives the standard deviation of the averaged measurements. The effect of the compound repeats well; differences between the knockouts mostly do not.

System: HCC-38
Experiment: relative cell number vs DMSO control (72 h) (% of DMSO); higher = less growth inhibition (more cells)
Procedure: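 QMAP-Seq: a pool of 5 breast cancer cell lines (ZR-75-1, SKBR3, HCC-38, MDA-MB-231, BT-20), each carrying 12 doxycycline-inducible Cas9 sgRNA perturbations (11 knockouts plus non-targeting sgNT), was treated with compounds for 72 h at four 10-fold doses (10 nM-10 uM or 1 nM-1 uM range). Barcodes were amplified and sequenced, and cell number was interpolated from 293T spike-in standard curves. The result is expressed as % of the median of DMSO wells. Two biological replicates.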

C=C1C(=O)O[C@H]2[C@H]1CC/C(C)=C/CC[C@@]1(C)O[C@@H]21 [Parthenolide]
Conditions | relative cell number
sgRNA knockout: sgATF3, 10 nM | 120 ± 26
sgRNA knockout: sgATF3, 100 nM | 109 ± 12
sgRNA knockout: sgATF3, 1000 nM | 112 ± 26
sgRNA knockout: sgATF3, 10000 nM | 105 ± 5.5
sgRNA knockout: sgATF4, 10 nM | 116 ± 3.9
sgRNA knockout: sgATF4, 100 nM | 98 ± 10
sgRNA knockout: sgATF4, 1000 nM | 110 ± 11
sgRNA knockout: sgATF4, 10000 nM | 111 ± 19
sgRNA knockout: sgATF6, 10 nM | 126 ± 14
sgRNA knockout: sgATF6, 100 nM | 94.2 ± 24
sgRNA knockout: sgATF6, 1000 nM | 109 ± 5.2
sgRNA knockout: sgATF6, 10000 nM | 118 ± 23
sgRNA knockout: sgATG7, 10 nM | 120 ± 1.9
sgRNA knockout: sgATG7, 100 nM | 92 ± 3.4
sgRNA knockout: sgATG7, 1000 nM | 105 ± 14
sgRNA knockout: sgATG7, 10000 nM | 105 ± 6.2
sgRNA knockout: sgERN1, 10 nM | 110 ± 7.5
sgRNA knockout: sgERN1, 100 nM | 109 ± 13
sgRNA knockout: sgERN1, 1000 nM | 106 ± 12
sgRNA knockout: sgERN1, 10000 nM | 113.9 ± 0.86
sgRNA knockout: sgHSF1, 10 nM | 137 ± 35
sgRNA knockout: sgHSF1, 100 nM | 120 ± 26
sgRNA knockout: sgHSF1, 1000 nM | 102 ± 5.3
sgRNA knockout: sgHSF1, 10000 nM | 106 ± 7.3
sgRNA knockout: sgHSF2, 10 nM | 126 ± 2.4
sgRNA knockout: sgHSF2, 100 nM | 108 ± 12
sgRNA knockout: sgHSF2, 1000 nM | 108 ± 14
sgRNA knockout: sgHSF2, 10000 nM | 112.5 ± 0.14
sgRNA knockout: sgKEAP1, 10 nM | 129 ± 42
sgRNA knockout: sgKEAP1, 100 nM | 103 ± 5.2
sgRNA knockout: sgKEAP1, 1000 nM | 101 ± 29
sgRNA knockout: sgKEAP1, 10000 nM | 109 ± 4.9
sgRNA knockout: sgNFE2L2, 10 nM | 131 ± 21
sgRNA knockout: sgNFE2L2, 100 nM | 101 ± 18
sgRNA knockout: sgNFE2L2, 1000 nM | 102 ± 13
sgRNA knockout: sgNFE2L2, 10000 nM | 108 ± 6
sgRNA knockout: sgSLC35F2, 10 nM | 117 ± 12
sgRNA knockout: sgSLC35F2, 100 nM | 103 ± 4.7
sgRNA knockout: sgSLC35F2, 1000 nM | 101 ± 6.5
sgRNA knockout: sgSLC35F2, 10000 nM | 105.2 ± 0.77
sgRNA knockout: sgXBP1, 10 nM | 118 ± 17
sgRNA knockout: sgXBP1, 100 nM | 93.2 ± 0.97
sgRNA knockout: sgXBP1, 1000 nM | 115 ± 12
sgRNA knockout: sgXBP1, 10000 nM | 113 ± 1.4

C[C@@H](Nc1cc(F)cc(F)c1)c1cc(C(=O)N(C)C)cc2c(=O)cc(N3CCOCC3)oc12 [AZD8186]
Conditions | relative cell number
sgRNA knockout: sgATF3, 10 nM | 113 ± 26
sgRNA knockout: sgATF3, 100 nM | 124 ± 11
sgRNA knockout: sgATF3, 1000 nM | 103 ± 10
sgRNA knockout: sgATF3, 10000 nM | 89.6 ± 1.8
sgRNA knockout: sgATF4, 10 nM | 98 ± 24
sgRNA knockout: sgATF4, 100 nM | 118 ± 12
sgRNA knockout: sgATF4, 1000 nM | 106 ± 11
sgRNA knockout: sgATF4, 10000 nM | 82.4 ± 10
sgRNA knockout: sgATF6, 10 nM | 105 ± 12
sgRNA knockout: sgATF6, 100 nM | 135 ± 17
sgRNA knockout: sgATF6, 1000 nM | 96.8 ± 8.3
sgRNA knockout: sgATF6, 10000 nM | 88.2 ± 24
sgRNA knockout: sgATG7, 10 nM | 103 ± 19
sgRNA knockout: sgATG7, 100 nM | 110 ± 22
sgRNA knockout: sgATG7, 1000 nM | 99.3 ± 15
sgRNA knockout: sgATG7, 10000 nM | 81.6 ± 5.8
sgRNA knockout: sgERN1, 10 nM | 105 ± 34
sgRNA knockout: sgERN1, 100 nM | 122 ± 18
sgRNA knockout: sgERN1, 1000 nM | 105 ± 1.3
sgRNA knockout: sgERN1, 10000 nM | 89.3 ± 0.96
sgRNA knockout: sgHSF1, 10 nM | 119 ± 19
sgRNA knockout: sgHSF1, 100 nM | 136 ± 18
sgRNA knockout: sgHSF1, 1000 nM | 119 ± 4.9
sgRNA knockout: sgHSF1, 10000 nM | 100 ± 2.4
sgRNA knockout: sgHSF2, 10 nM | 114 ± 44
sgRNA knockout: sgHSF2, 100 nM | 130 ± 5.5
sgRNA knockout: sgHSF2, 1000 nM | 112 ± 17
sgRNA knockout: sgHSF2, 10000 nM | 93.5 ± 8.5
sgRNA knockout: sgKEAP1, 10 nM | 118 ± 25
sgRNA knockout: sgKEAP1, 100 nM | 160 ± 27
sgRNA knockout: sgKEAP1, 1000 nM | 106 ± 1.2
sgRNA knockout: sgKEAP1, 10000 nM | 104.63 ± 0.088
sgRNA knockout: sgNFE2L2, 10 nM | 100 ± 23
sgRNA knockout: sgNFE2L2, 100 nM | 113 ± 25
sgRNA knockout: sgNFE2L2, 1000 nM | 95.8 ± 9.6
sgRNA knockout: sgNFE2L2, 10000 nM | 78.9 ± 11
sgRNA knockout: sgSLC35F2, 10 nM | 106 ± 11
sgRNA knockout: sgSLC35F2, 100 nM | 122 ± 21
sgRNA knockout: sgSLC35F2, 1000 nM | 100 ± 16
sgRNA knockout: sgSLC35F2, 10000 nM | 85 ± 6
sgRNA knockout: sgXBP1, 10 nM | 106 ± 33
sgRNA knockout: sgXBP1, 100 nM | 117 ± 14
sgRNA knockout: sgXBP1, 1000 nM | 104 ± 12
sgRNA knockout: sgXBP1, 10000 nM | 88.8 ± 12

O=C(Cc1ccc(-c2ccc(OCCN3CCOCC3)cc2)cn1)NCc1ccccc1 [KX2391]
Conditions | relative cell number
sgRNA knockout: sgATF3, 10 nM | 144 ± 16
sgRNA knockout: sgATF3, 100 nM | 24.7 ± 4.6
sgRNA knockout: sgATF3, 1000 nM | 24.5 ± 1.2
sgRNA knockout: sgATF3, 10000 nM | 30.57 ± 0.1
sgRNA knockout: sgATF4, 10 nM | 142 ± 14
sgRNA knockout: sgATF4, 100 nM | 20.7 ± 1.3
sgRNA knockout: sgATF4, 1000 nM | 21.9 ± 0.99
sgRNA knockout: sgATF4, 10000 nM | 26.4 ± 3.8
sgRNA knockout: sgATF6, 10 nM | 129 ± 45
sgRNA knockout: sgATF6, 100 nM | 27.8 ± 1.2
sgRNA knockout: sgATF6, 1000 nM | 34.6 ± 5.7
sgRNA knockout: sgATF6, 10000 nM | 26 ± 5
sgRNA knockout: sgATG7, 10 nM | 133 ± 40
sgRNA knockout: sgATG7, 100 nM | 25.4 ± 3.5
sgRNA knockout: sgATG7, 1000 nM | 28.2 ± 1.2
sgRNA knockout: sgATG7, 10000 nM | 33.4 ± 2.7
sgRNA knockout: sgERN1, 10 nM | 143 ± 17
sgRNA knockout: sgERN1, 100 nM | 25.3 ± 1.8
sgRNA knockout: sgERN1, 1000 nM | 28.2 ± 2.1
sgRNA knockout: sgERN1, 10000 nM | 29.2 ± 5.2
sgRNA knockout: sgHSF1, 10 nM | 137 ± 9.8
sgRNA knockout: sgHSF1, 100 nM | 28 ± 12
sgRNA knockout: sgHSF1, 1000 nM | 30.6 ± 3.2
sgRNA knockout: sgHSF1, 10000 nM | 31.2 ± 3.2
sgRNA knockout: sgHSF2, 10 nM | 151 ± 18
sgRNA knockout: sgHSF2, 100 nM | 28.2 ± 2.9
sgRNA knockout: sgHSF2, 1000 nM | 24.4 ± 1.1
sgRNA knockout: sgHSF2, 10000 nM | 32.2 ± 1.4
sgRNA knockout: sgKEAP1, 10 nM | 132 ± 37
sgRNA knockout: sgKEAP1, 100 nM | 31.4 ± 10
sgRNA knockout: sgKEAP1, 1000 nM | 26.1 ± 5.9
sgRNA knockout: sgKEAP1, 10000 nM | 33.96 ± 0.26
sgRNA knockout: sgNFE2L2, 10 nM | 143 ± 14
sgRNA knockout: sgNFE2L2, 100 nM | 22.6 ± 1.7
sgRNA knockout: sgNFE2L2, 1000 nM | 23.36 ± 0.21
sgRNA knockout: sgNFE2L2, 10000 nM | 27.3 ± 7.1
sgRNA knockout: sgSLC35F2, 10 nM | 147 ± 37
sgRNA knockout: sgSLC35F2, 100 nM | 26.4 ± 1.8
sgRNA knockout: sgSLC35F2, 1000 nM | 29.1 ± 7.1
sgRNA knockout: sgSLC35F2, 10000 nM | 31.2 ± 9.7
sgRNA knockout: sgXBP1, 10 nM | 141 ± 30
sgRNA knockout: sgXBP1, 100 nM | 22.8 ± 1.4
sgRNA knockout: sgXBP1, 1000 nM | 24.7 ± 1
sgRNA knockout: sgXBP1, 10000 nM | 34.3 ± 1.7
